Test results as given in patent US20130029334A1, “mRNA As Biomarkers For Liver Injury or Other Liver Perturbations” (priority 2010, published 2013).

What was measured:
rats [1] = experiment: Sucrose density gradient fractionation of plasma 14,000xg pellet with qPCR and electron microscopy; assay type: in vivo, rat; details: plasma pellet of DGAL-treated rats
rats [2] = experiment: Canonical pathway analysis of APAP and DGAL microarray data; design: species or system rat; details: APAP treatment

SMILES | share of Hp mRNA copies in middle fractions (rats [1]) [%] | share of total Alb mRNA copies in middle fractions (1.10-1.18 g/ml) (rats [1]) [%] | share of total Fgb mRNA copies in middle fractions (rats [1]) [%] | # genes diff. exp., Cell Death: Cell death (rats [2]) | Gene Exp. Ratio, canonical pathway Antigen Presentation (rats [2]) | Gene Exp. Ratio, canonical pathway B-cell Receptor Signaling (rats [2]) | Gene Exp. Ratio, canonical pathway Caveolar-Mediated Endocytosis (rats [2]) | Gene Exp. Ratio, canonical pathway Ephrin Receptor Signaling (rats [2]) | Gene Exp. Ratio, canonical pathway Fcy Receptor-mediated Phagocytosis in Macrophages and Monocytes (rats [2]) | Gene Exp. Ratio, canonical pathway Integrin Signaling (rats [2]) | Gene Exp. Ratio, canonical pathway Lipid Ag Presentation by CD1 (rats [2]) | Gene Exp. Ratio, canonical pathway Thrombin Signaling (rats [2]) | Gene Exp. Ratio, canonical pathway Virus Entry via Endocytic Pathways (rats [2])
N[C@H]1C(O)O[C@H](CO)[C@H](O)[C@@H]1O (stereo partly drawn) [DGAL, D-(+)-galactosamine] | 81 | 89 | 84 | – | – | – | – | – | – | – | – | – | –
CC(=O)Nc1ccc(O)cc1 [APAP, acetaminophen] | – | – | – | 223 | 9/39 | 21/155 | 15/182 | 25/195 | 18/104 | 31/203 | 6/20 | 28/203 | 17/96
